Measured values as given in publication PMC13064845.
Results are given in words; binding and its absence hold for the method and conditions named. For part of these data: In cells and extracts the contact can be indirect. Some entries that bind do so weakly or less than the wild type. For part of these data: Where a sequence is shown, tags or fusion partners need not be part of it.

Protein sequences, listed by entry. Tags and fused reporters are not part of them. Residues count along the entry.
UniProt P35441, residues 19-1170: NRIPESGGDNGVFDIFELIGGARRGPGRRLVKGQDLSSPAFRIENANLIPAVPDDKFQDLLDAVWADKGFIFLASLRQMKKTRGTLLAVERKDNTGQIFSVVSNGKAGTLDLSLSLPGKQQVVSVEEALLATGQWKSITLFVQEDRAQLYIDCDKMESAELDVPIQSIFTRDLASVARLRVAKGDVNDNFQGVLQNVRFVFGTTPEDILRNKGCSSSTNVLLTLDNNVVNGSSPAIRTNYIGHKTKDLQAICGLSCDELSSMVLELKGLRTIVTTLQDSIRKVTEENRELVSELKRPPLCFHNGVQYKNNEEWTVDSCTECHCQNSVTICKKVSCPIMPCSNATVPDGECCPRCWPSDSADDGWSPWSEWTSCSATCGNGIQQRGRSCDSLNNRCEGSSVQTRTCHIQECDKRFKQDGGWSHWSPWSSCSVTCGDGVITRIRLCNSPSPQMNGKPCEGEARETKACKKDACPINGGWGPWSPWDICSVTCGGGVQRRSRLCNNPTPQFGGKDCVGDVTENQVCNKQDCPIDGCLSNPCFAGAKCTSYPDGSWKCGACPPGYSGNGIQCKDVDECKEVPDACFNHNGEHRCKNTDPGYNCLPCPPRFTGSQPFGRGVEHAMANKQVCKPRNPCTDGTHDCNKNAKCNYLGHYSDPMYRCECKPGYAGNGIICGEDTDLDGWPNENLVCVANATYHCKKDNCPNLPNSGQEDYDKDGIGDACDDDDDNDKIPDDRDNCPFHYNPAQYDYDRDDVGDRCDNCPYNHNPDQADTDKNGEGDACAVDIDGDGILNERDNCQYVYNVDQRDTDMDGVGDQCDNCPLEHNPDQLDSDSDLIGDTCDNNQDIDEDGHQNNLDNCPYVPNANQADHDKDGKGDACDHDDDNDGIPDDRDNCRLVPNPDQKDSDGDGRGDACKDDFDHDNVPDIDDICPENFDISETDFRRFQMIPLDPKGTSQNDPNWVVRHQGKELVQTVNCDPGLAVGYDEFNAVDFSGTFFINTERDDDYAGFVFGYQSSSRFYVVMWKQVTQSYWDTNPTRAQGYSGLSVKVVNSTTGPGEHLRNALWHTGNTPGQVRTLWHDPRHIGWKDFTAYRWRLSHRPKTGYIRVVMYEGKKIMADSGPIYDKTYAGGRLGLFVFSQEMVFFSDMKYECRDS

Legend:
[1] = biological target: thrombospondin-1 (TSP1), immobilised in the Biacore analysis (UniProt P35441); test: SPR; Biacore; TSP1 immobilised, sequential injections of FBLN7 at rising concentrations; both purified
HA-tagged TSP1 = HA-tagged TSP1 (UniProt P35441); test: co-IP; HEK293T cells co-transfected with HA-tagged TSP1 and FBLN7-Flag (full length, deletion mutants or point mutants); precipitated in both directions for the full-length protein

Binder | binding [1] | binding (HA-tagged TSP1)
FBLN7-Flag ΔN (lacking the coiled coil in N-terminus, residues 22–79) (protein, UniProt Q501P1) SCPALEAPPDGKKFGSKYLVDHEVYFTCNPGFQLVGPSSVVCLANGSWTGEQPRCRDISECSSQPCHNGGTCVEGINHYRCICPPGKTGNRCQHQTQAAAPDGGEAGDPAFSRAPRCAQVEREQHCSCEAGFHLSSTTGGHSVCQDVNECEIYGQKGRPRLCMHACVNTPGSYRCTCPSGYRILADGKSCEDVDECAGPQHMCPRGTTCINTGGGFQCVNPECPEGSGNISYVKTSPFQCERNPCPMDSRPCRHLPKTISFHYLSLPSKLKTPITLFRMATASIPGHPGPNSLRFGIVGGNSRGHFVMQRSDRQTGELILTQTLEGPQTLEVDVDMSEYLERSFQANHVSKVTIFVSRYDF | – | binds
FBLN7-Flag ΔSushi (lacking the sushi domain, residues 73–142) (protein, UniProt Q501P1) QSCLNKQQLLTTIRQLQQLLKGQETRFTEGIRNMKSRLAALQNTVNKMQPCHNGGTCVEGINHYRCICPPGKTGNRCQHQTQAAAPDGGEAGDPAFSRAPRCAQVEREQHCSCEAGFHLSSTTGGHSVCQDVNECEIYGQKGRPRLCMHACVNTPGSYRCTCPSGYRILADGKSCEDVDECAGPQHMCPRGTTCINTGGGFQCVNPECPEGSGNISYVKTSPFQCERNPCPMDSRPCRHLPKTISFHYLSLPSKLKTPITLFRMATASIPGHPGPNSLRFGIVGGNSRGHFVMQRSDRQTGELILTQTLEGPQTLEVDVDMSEYLERSFQANHVSKVTIFVSRYDF | – | binds
FBLN7-Flag ΔEGF-like (lacking the EGF-like domain, residues 136–172) (protein, UniProt Q501P1) QSCLNKQQLLTTIRQLQQLLKGQETRFTEGIRNMKSRLAALQNTVNKMTPDAPPVSCPALEAPPDGKKFGSKYLVDHEVYFTCNPGFQLVGPSSVVCLANGSWTGEQPRCRHQTQAAAPDGGEAGDPAFSRAPRCAQVEREQHCSCEAGFHLSSTTGGHSVCQDVNECEIYGQKGRPRLCMHACVNTPGSYRCTCPSGYRILADGKSCEDVDECAGPQHMCPRGTTCINTGGGFQCVNPECPEGSGNISYVKTSPFQCERNPCPMDSRPCRHLPKTISFHYLSLPSKLKTPITLFRMATASIPGHPGPNSLRFGIVGGNSRGHFVMQRSDRQTGELILTQTLEGPQTLEVDVDMSEYLERSFQANHVSKVTIFVSRYDF | – | binds
FBLN7-Flag ΔC (lacking the C-terminus, residues 374–440) (protein, UniProt Q501P1) QSCLNKQQLLTTIRQLQQLLKGQETRFTEGIRNMKSRLAALQNTVNKMTPDAPPVSCPALEAPPDGKKFGSKYLVDHEVYFTCNPGFQLVGPSSVVCLANGSWTGEQPRCRDISECSSQPCHNGGTCVEGINHYRCICPPGKTGNRCQHQTQAAAPDGGEAGDPAFSRAPRCAQVEREQHCSCEAGFHLSSTTGGHSVCQDVNECEIYGQKGRPRLCMHACVNTPGSYRCTCPSGYRILADGKSCEDVDECAGPQHMCPRGTTCINTGGGFQCVNPECPEGSGNISYVKTSPFQCERNPCPMDSRPCRHLPKTISFHYLSLPSKLKTPITLFRMATASIPGHPGPNSLR | – | binds

The remaining lines, values ahead:

binding [1] | binding (HA-tagged TSP1) | Binder
binds | – | fibulin-7 (FBLN7), analyte of the Biacore analysis (protein, UniProt Q501P1 25-440) QSCLNKQQLLTTIRQLQQLLKGQETRFTEGIRNMKSRLAALQNTVNKMTPDAPPVSCPALEAPPDGKKFGSKYLVDHEVYFTCNPGFQLVGPSSVVCLANGSWTGEQPRCRDISECSSQPCHNGGTCVEGINHYRCICPPGKTGNRCQHQTQAAAPDGGEAGDPAFSRAPRCAQVEREQHCSCEAGFHLSSTTGGHSVCQDVNECEIYGQKGRPRLCMHACVNTPGSYRCTCPSGYRILADGKSCEDVDECAGPQHMCPRGTTCINTGGGFQCVNPECPEGSGNISYVKTSPFQCERNPCPMDSRPCRHLPKTISFHYLSLPSKLKTPITLFRMATASIPGHPGPNSLRFGIVGGNSRGHFVMQRSDRQTGELILTQTLEGPQTLEVDVDMSEYLERSFQANHVSKVTIFVSRYDF
– | binds | full-length FBLN7-Flag (protein, UniProt Q501P1 25-440) QSCLNKQQLLTTIRQLQQLLKGQETRFTEGIRNMKSRLAALQNTVNKMTPDAPPVSCPALEAPPDGKKFGSKYLVDHEVYFTCNPGFQLVGPSSVVCLANGSWTGEQPRCRDISECSSQPCHNGGTCVEGINHYRCICPPGKTGNRCQHQTQAAAPDGGEAGDPAFSRAPRCAQVEREQHCSCEAGFHLSSTTGGHSVCQDVNECEIYGQKGRPRLCMHACVNTPGSYRCTCPSGYRILADGKSCEDVDECAGPQHMCPRGTTCINTGGGFQCVNPECPEGSGNISYVKTSPFQCERNPCPMDSRPCRHLPKTISFHYLSLPSKLKTPITLFRMATASIPGHPGPNSLRFGIVGGNSRGHFVMQRSDRQTGELILTQTLEGPQTLEVDVDMSEYLERSFQANHVSKVTIFVSRYDF
